Assay [1] addresses glutamyl-tRNA synthetase from Elizabethkingia meningosepticum (Elizabethkingia meningosepticum CCUG 26117). The assay is described as follows: SEC; Superdex 75; running buffer 25 mM HEPES pH 7.0, 500 mM NaCl, 5% glycerol, 2 mM DTT, 0.025% sodium azide; protein after Ni-NTA IMAC; both purified. In general terms: Size exclusion chromatography separates by hydrodynamic size, large species first.

In assay [2] the target is glutamyl-tRNA synthetase from Elizabethkingia anopheles (Elizabethkingia anopheles NUHP1). Described as above.

No constants are given. Whether binding was seen depends on the method and setting.

B1: glutamyl-tRNA synthetase from Elizabethkingia meningosepticum (enzyme)
chain: MEKVRVRFAPSPTGPLHLGGVRTALYDYLFAKHNGGDFILRIEDTDTQRYVPGSEEYIMEALEWIGMIPDESPKHGGPYAPYRQSERRAIYDKYTEQILKTDYAYLAFDTPEELDQIRAEYEAKGDVFAYNYETRHRLRNSISLPEDEVKKLLDEKTPYVIRFKMPLDRIINLNDIIRGKFSVNTNTLDDKVLVKNDGMPTYHFANIIDDHEMKITHVIRGEEWLPSMALHVLLYEAMEWNAPEFAHLSLILKPEGKGKLSKRDGDKFGFPVFPLNFTDPATGNTSAGYREEGYLPEAFINMVAMLGWSPADNKEIISMDEMIKEFDLHKVHKAGARFSAEKAKWFNQQYLQMMSNEAILPEFKTILSNNSIEISDEKALRIIGLMKERATFIKDIYNDGKFFFHAPESYDEKAAKKAWSPETAALMQEVNNAITTVDFKADTIKESLHHLTEEKGLGMGKVMMPLRLSLVGELKGPDVPELMEIIGKEESVSRITKAIETLK
Take B1: the binding result in assay [1] is listed as “no binding”.

B2: glutamyl-tRNA synthetase from Elizabethkingia anopheles (enzyme)
chain: MEKVRVRFAPSPTGPLHLGGVRTALYDYLFAKHNGGDFILRIEDTDTQRYVPGSEEYIMEALEWIGMVPDESPKHGGPYAPYRQSERRDIYDRYTEQILKTDYAYLAFDTPEELDQIRAEFEARGDVFAYNYETRNRLRNSISLPEEEVKKLLEEKTPYVIRFKMPLDRIINLNDIIRGKFSVNTNTLDDKVLVKNDGMPTYHFANIIDDHEMKITHVIRGEEWLPSMALHVLLYEAMGWDAPEFAHLSLILKPEGKGKLSKRDGDKFGFPVFPLNFTDPATGNTSAGYREEGYLPEAFINMVAMLGWSPADNKEIVSMDEMIKEFDLNKVHKAGARFSAEKAKWFNQQYLQLMSNEAILPEFKKVLAENNVEVSDEKALKIIGLMKERATFVKDIYNDGKFFFHAPESFDEKASKKAWSPETAVLMQELTEAISSLDFKAEIIKESIHHLAEAKGLGMGKVMMPLRLSLVGELKGPDVPDLMEMIGKEETISRINKAIETLK
As to B2, the binding entry in assay [2] is “no binding”.

The record behind these values is article PMC9350836.
